Results as given in PubChem BioAssay AID504467 (National Center for Advancing Translational Sciences (NCATS), 2011).
Among all 330,000 compounds or so, about 7,700 (2.3%) were called active. The inconclusive results got no clear call from the source; some entries with a clear call stand among them for comparison. Calls follow the shape of the dose curve; as a rule, active = well fitted inhibition curve with a large enough effect; inconclusive = small, poorly fitted or top-dose-only effect, or effect the other way; inactive = flat fitted curve, though single readings scatter. Potencies of inconclusive entries are doubtful fits and often do not repeat.

Assay: qHTS screen for small molecules that inhibit ELG1-dependent DNA repair in human embryonic kidney (HEK293T) cells expressing luciferase-tagged ELG1; also: nearly all actives have a fitted effect of over 55% in size
Details: HEK293T ELG1-luciferase reporter, luminescence, 16 h, DNA damage induced by 5-fluorouridine; activity change, negative = inhibition: at 46.1 µM (top of the series)
In short: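 HEK293T cells expressing luciferase-tagged ELG1 (2,000/well) received 5-Fluorouridine plus compound or DMSO for 16 hr at 37 °C. Luciferase was read by ONE-Glo luminescence after 30 min at room temperature.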
% is scaled to controls: 0 for no effect and ±100 for the full control effect; potency is read from the fitted curve at half-maximal effect.

SMILES	activity change, negative = inhibition	Potency
CC(C)C[C@@H](COc1ccccc1)N1CCN(Cc2ccccc2)CCC1=O	inactive: 0.77%	–
Cc1cccc2c1cnn2C(=O)Nc1cc(F)ccc1F	–	inconclusive: 16.4 µM [activator, partial curve]
CCc1nc2ccccc2c(C(=O)OCC(=O)NC(=O)c2cccn2C)c1C	–	inconclusive: 11.6 µM [inhibitor, partial curve]
Cc1ccc(N(C(=O)Cn2nnc(-c3ccc(F)cc3)n2)C(C(=O)NC(C)(C)C)c2ccncc2)cc1 (stereo not given)	inactive: -10.6%	–
O=C(NC(=S)Nc1ccc2[nH]c(=O)[nH]c2c1)c1ccccc1[N+](=O)[O-]	–	inconclusive: 16.4 µM [activator, single point]
CC(=O)N1c2ccc(C)cc2C(c2ccccc2)CC1C (stereo not given)	–	inconclusive: 20.6 µM [activator, partial curve]
COc1cccc(C(=O)NCCC(=O)NCc2cc(=O)n(C)c(=O)n2C)c1	inactive: 9.25%	–
Cc1cccc(NCc2nc3ccccc3n2Cc2ccccc2)c1	–	inconclusive: 6.51 µM [activator, partial curve, poor fit]
CCOC(=O)C1(CC2CC2)CCN(Cc2cnc(-c3ccccc3C)nc2)CC1	–	inconclusive: 32.6 µM [inhibitor, single point]
O=C(Nc1ccc(O)cc1)c1ccc(NC(=O)c2cccs2)cc1	–	inconclusive: 7.3 µM [activator, partial curve]
O=C(NC1CC1)c1ccc(CN(c2ccccc2)S(=O)(=O)c2ccccc2)cc1	–	inconclusive: 25.9 µM [inhibitor, partial curve, poor fit]
CCCNC(=O)C1CN(C(=O)c2nn(Cc3ccccc3)c(=O)c3ccccc23)c2ccccc2O1 (stereo not given)	–	inconclusive: 18.3 µM [inhibitor, single point]
O=C1NC[C@@H](c2ccccc2)OC(=O)[C@@H](Cc2ccc(F)cc2)CC/C=C/C[C@H]1CC(=O)N(CCO)Cc1ccccc1	–	active: 13 µM
CCN(CC)S(=O)(=O)c1cccc(C(=O)N/N=C/c2ccccc2OCC(=O)O)c1	inactive: 0.0947%	–
Cc1ccc(CNC(=O)CNC(=O)[C@@H]2Cc3ccccc3CN2)cc1	–	inconclusive: 29.1 µM [activator, single point]
CCn1c(SCC(=O)N/N=C/c2c[nH]c3ccccc23)nnc1-c1ccc(Cl)cc1	–	inconclusive: 25.9 µM [inhibitor, partial curve]
CN(Cc1c(C(=O)N/N=C/c2cc(F)ccc2F)nnn1-c1nonc1N)C1CCCCC1	–	inconclusive: 11.6 µM [activator, partial curve]
CCOc1ccc2nc(SC3CC(=O)N(c4ccc(OC)cc4OC)C3=O)sc2c1 (stereo not given)	–	inconclusive: 14.6 µM [activator, partial curve]
CCc1ccc(NC(=O)C2=CC=CN3CCS(=O)(=O)N=C23)cc1	–	inconclusive: 20.6 µM [activator, partial curve]
O=C(/C=C/c1ccco1)Nc1nnc(-c2ccco2)s1	–	inconclusive: 11.6 µM [activator, partial curve, poor fit]
O=C(COC(=O)c1cccc(OC(F)F)c1)Nc1ncccn1	inactive: 12.6%	–
COC(=O)C1CN(S(=O)(=O)c2cc(OC)ccc2OC)CCS1 (stereo not given)	inactive: 1.65%	–

SMILES	activity change, negative = inhibition	Potency
CC1(C)CC(=O)C=C(Nc2ccc(F)c(Cl)c2)C1	inactive: 1.85%	–
CC1(C)C(=O)Nc2ccccc2N1C(=O)COc1cc(Cl)ccc1Cl	–	inconclusive: 16.4 µM [inhibitor, partial curve, poor fit]
CCCCCCCCCCn1c2c(c(=N)c3c1CCC3)CCC2	–	inconclusive: 29.1 µM [inhibitor, partial curve, poor fit]
Cc1nc(SC(C(N)=O)c2ccccc2)c(C#N)c(C)c1C (stereo not given)	inactive: -9.76%	–
CC1=CC(=O)C=C(C)C1=NOS(=O)(=O)c1ccccc1	–	inconclusive: 29.1 µM [inhibitor, single point]
O=C(COc1cccc2c1CCNC2=O)Nc1cccc(F)c1	–	inconclusive: 29.1 µM [activator, single point]
O=C(c1ccc(OC2CCN(C/C=C/c3ccc(F)cc3)CC2)cc1)N1CCCC1	inactive: -17.2%	–
CC1(C(=O)CSc2nc3ccccc3s2)CCC(=O)O1 (stereo not given)	–	inconclusive: 29.1 µM [activator, partial curve, poor fit]
CCOC(=O)c1c(C)[nH]c(C2=NNC(=NC(C)COC)SC2)c1C (stereo not given)	–	inconclusive: 6.51 µM [activator, partial curve]
O=c1[nH]c(SCc2ccc(Cl)cc2)nc2[nH]ncc12	–	inconclusive: 14.6 µM [activator, partial curve]
O=C(NCCc1ccccn1)c1cc(-c2ccccc2Cl)nc2ccccc12	–	inconclusive: 23.1 µM [inhibitor, partial curve, poor fit]
Cc1ccccc1N1CCN(C2=NC(=O)/C(=C/c3cn[nH]c3-c3ccccc3)S2)CC1	–	active: 0.82 µM
CC(C)c1nnc(NC(=O)c2nc(S(=O)(=O)Cc3ccc(F)cc3)ncc2Cl)s1	–	inconclusive: 29.1 µM [inhibitor, single point]
Cc1c(C(=O)NC2CCCCC2)oc2ccccc12	–	inconclusive: 23.1 µM [activator, partial curve]
CCOC(=O)c1c(N2C(=O)Nc3ccccc3N2O)n[nH]c1-c1cccc(OC)c1	–	inconclusive: 0.651 µM [inhibitor, single point]
CC(NC(=O)OCc1ccccc1)C(=O)Oc1cc2oc(=O)cc(-c3ccccc3)c2cc1Cl (stereo not given)	–	active: 20.6 µM
Cc1ccc2nc(SC(C)C(=O)N3CCCC3)[nH]c2c1 (stereo not given)	–	inconclusive: 16.4 µM [activator, partial curve]
CCOC(=O)Cc1csc(NC(=S)NC(=O)c2ccc(C)cc2)n1	–	inconclusive: 29.1 µM [activator, single point]
CCN(CC)CCN(Cc1cc2cc3c(cc2[nH]c1=O)OCO3)C(=S)NCC(C)C	–	inconclusive: 5.17 µM [inhibitor, partial curve, poor fit]
CCOc1cc(NC(=S)NCCCN2CCOCC2)c(OCC)cc1NC(=O)c1cccc(C)c1	inactive: 5.11%	–
O=C(Nc1ccccn1)c1cc2ccccc2o1	–	inconclusive: 0.326 µM [activator, partial curve]
CN1C/C(=C\c2ccc(N3CCOCC3)cc2)C(=O)/C(=C/c2ccc(N3CCOCC3)cc2)C1	–	inconclusive: 23.1 µM [inhibitor, single point]

SMILES	activity change, negative = inhibition	Potency
CCCCCCC(=O)N(O)C1CC(=O)N(c2ccc(Cl)cc2)C1=O (stereo not given)	–	inconclusive: 29.1 µM [activator, single point]
Cc1cccc(CS(=O)(=O)c2ncc(Cl)c(C(=O)Nc3ccc(F)cc3)n2)c1	–	inconclusive: 23.1 µM [inhibitor, partial curve]
COc1cc(C(CCN2CCCC(C)C2)c2c(OC)cc(OC)c3c(-c4ccccc4)cc(=O)oc23)cc(OC)c1OC (stereo not given)	inactive: -0.0039%	–
Cc1ccc(Cl)cc1NC(=O)C[n+]1ccc(Cc2ccc([N+](=O)[O-])cc2)cc1	–	inconclusive: 16.4 µM [inhibitor, partial curve, poor fit]
COc1cc(-c2cc(C(=O)Nc3c(Cl)cc(Cl)cc3Cl)c3ccccc3n2)cc(OC)c1OC	–	active: 5.17 µM
CC(=O)Nc1ccc(C=NNC(=O)c2ccc(NS(=O)(=O)c3cccs3)cc2)cc1	–	inconclusive: 29.1 µM [activator, partial curve, poor fit]
COc1ccc(C2SCC(=O)N2CCCN(C)C)cc1 (stereo not given)	–	inconclusive: 23.1 µM [activator, partial curve, poor fit]
COC(=O)[C@@]12OC[C@]34[C@H]([C@@H](O)[C@@H]1O)[C@@]1(C)C(=O)C(O[C@@H]5OC(CO)[C@@H](O)[C@@H](O)[C@@H]5O)=C[C@@H](C)[C@@H]1C[C@H]3OC(=O)[C@H](OC(=O)/C=C(\C)C(C)(C)OC(C)=O)[C@@H]24 (stereo not given in full)	–	active: 6.51 µM
Cc1nnc(NCCc2ccccc2)[nH]c1=O	inactive: -8.11%	–
COc1ccc(-c2cc(C(=O)Nc3ccccc3O)c3ccccc3n2)cc1OC	–	active: 23.1 µM
Cc1cc(N2CCN(C)CC2)nc2ccc(NC(=O)CCC(=O)NCCC(C)C)cc12	inactive: 23.6%	–
c1ccc2c(c1)nc(N1CCOCC1)c1nnnn12	–	inconclusive: 23.1 µM [activator, single point]
COc1ccc(C)cc1NC(=O)c1cc2c(s1)CCC2	–	inconclusive: 20.6 µM [activator, single point]
COc1ccc(-c2n[nH]c(=S)n2-c2ccc3c(c2)OCCO3)cc1	–	inconclusive: 16.4 µM [activator, partial curve, poor fit]
Cc1ccc(NC(=S)NCCN(C2CCCCC2)C2CCCC2)cc1C	–	inconclusive: 32.6 µM [inhibitor, partial curve, poor fit]
O=C(c1ccccc1O)N1N=C(C(F)(F)F)CC1(O)c1ccc([N+](=O)[O-])cc1 (stereo not given)	–	inconclusive: 29.1 µM [inhibitor, single point]
CCN(CC)S(=O)(=O)c1cc(NC(=O)C(C)Nc2ccccc2N2CCOCC2)ccc1C (stereo not given)	–	inconclusive: 16.4 µM [inhibitor, single point]
CC(=O)Nc1ccc(Sc2ncccc2C(=O)Nc2ccc(OC(F)(F)F)cc2)cn1	inactive: 18.1%	–
Cn1nc([N+](=O)[O-])nc1Oc1ccccc1	inactive: 5.81%	–
Cc1ccc(Cn2nc(C)c(NC(=O)c3cc(C)no3)c2C)cc1	inactive: -4.08%	–
O=C(O)CCc1ccc(-c2ccc(Br)cc2)o1	–	inconclusive: 29.1 µM [activator, single point]

13 structures from above, ordered by number of heavy atoms, falling:
SMILES	activity change, negative = inhibition	Potency
COC(=O)[C@@]12OC[C@]34[C@H]([C@@H](O)[C@@H]1O)[C@@]1(C)C(=O)C(O[C@@H]5OC(CO)[C@@H](O)[C@@H](O)[C@@H]5O)=C[C@@H](C)[C@@H]1C[C@H]3OC(=O)[C@H](OC(=O)/C=C(\C)C(C)(C)OC(C)=O)[C@@H]24 (stereo not given in full)	–	active: 6.51 µM
COc1cc(C(CCN2CCCC(C)C2)c2c(OC)cc(OC)c3c(-c4ccccc4)cc(=O)oc23)cc(OC)c1OC (stereo not given)	inactive: -0.0039%	–
COc1cc(-c2cc(C(=O)Nc3c(Cl)cc(Cl)cc3Cl)c3ccccc3n2)cc(OC)c1OC	–	active: 5.17 µM
CCN(CC)S(=O)(=O)c1cc(NC(=O)C(C)Nc2ccccc2N2CCOCC2)ccc1C (stereo not given)	–	inconclusive: 16.4 µM [inhibitor, single point]
Cc1cc(N2CCN(C)CC2)nc2ccc(NC(=O)CCC(=O)NCCC(C)C)cc12	inactive: 23.6%	–
CC(=O)Nc1ccc(C=NNC(=O)c2ccc(NS(=O)(=O)c3cccs3)cc2)cc1	–	inconclusive: 29.1 µM [activator, partial curve, poor fit]
Cc1cccc(CS(=O)(=O)c2ncc(Cl)c(C(=O)Nc3ccc(F)cc3)n2)c1	–	inconclusive: 23.1 µM [inhibitor, partial curve]
Cc1ccc(NC(=S)NCCN(C2CCCCC2)C2CCCC2)cc1C	–	inconclusive: 32.6 µM [inhibitor, partial curve, poor fit]
CCCCCCC(=O)N(O)C1CC(=O)N(c2ccc(Cl)cc2)C1=O (stereo not given)	–	inconclusive: 29.1 µM [activator, single point]
COc1ccc(C2SCC(=O)N2CCCN(C)C)cc1 (stereo not given)	–	inconclusive: 23.1 µM [activator, partial curve, poor fit]
c1ccc2c(c1)nc(N1CCOCC1)c1nnnn12	–	inconclusive: 23.1 µM [activator, single point]
O=C(O)CCc1ccc(-c2ccc(Br)cc2)o1	–	inconclusive: 29.1 µM [activator, single point]
Cn1nc([N+](=O)[O-])nc1Oc1ccccc1	inactive: 5.81%	–
